Results reported in publication PMC10853802, “ESRP1 controls biogenesis and function of a large abundant multiexon circRNA”.
Substitutions are numbered along the chain they refer to. For part of these data: Weaker means in comparison with the reference protein, sequence or condition of that experiment. Protein sequences can lack the tags named with them. For part of these data: For at least one entry, the source does not settle the construct or the ends of the probe. For part of these data: At least one verdict was read from the data and is not stated in words by the source.

Protein sequences, listed by entry. Tags and fused reporters are not part of them. Lines headed by an entry give the natural chain unless they say otherwise; changes in a name come on top.
UniProt Q6NXG1: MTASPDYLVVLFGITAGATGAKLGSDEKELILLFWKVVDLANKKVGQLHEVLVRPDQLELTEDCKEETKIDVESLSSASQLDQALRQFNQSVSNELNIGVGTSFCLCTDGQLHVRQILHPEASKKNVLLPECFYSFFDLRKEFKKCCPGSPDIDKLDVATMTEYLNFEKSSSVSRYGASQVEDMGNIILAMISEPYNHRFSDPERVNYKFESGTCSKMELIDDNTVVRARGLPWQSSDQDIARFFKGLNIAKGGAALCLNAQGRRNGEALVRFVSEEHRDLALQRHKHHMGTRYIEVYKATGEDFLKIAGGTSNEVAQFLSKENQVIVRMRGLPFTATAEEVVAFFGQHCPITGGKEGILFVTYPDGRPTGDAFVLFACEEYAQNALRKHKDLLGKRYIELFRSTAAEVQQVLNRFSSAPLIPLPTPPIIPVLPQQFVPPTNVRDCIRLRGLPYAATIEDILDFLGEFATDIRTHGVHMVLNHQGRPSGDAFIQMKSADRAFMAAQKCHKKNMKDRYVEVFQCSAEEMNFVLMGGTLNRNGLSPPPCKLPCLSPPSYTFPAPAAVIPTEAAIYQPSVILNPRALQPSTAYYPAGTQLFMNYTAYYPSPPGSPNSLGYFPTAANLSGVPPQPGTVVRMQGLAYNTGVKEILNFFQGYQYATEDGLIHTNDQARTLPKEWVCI

What was measured:
Experiment in all cases: ITC
Settings in all cases: ITC: 100 mM NaCl, 10 mM Tris-HCl pH 8.0, 25 C; 300 uM protein injected into 20 uM RNA; recombinant protein; residues 312-430; protein details: His-SUMO removed by Ulp1
[1] = target: T1, ESRP1 qRRM2 R331A (human) (UniProt Q6NXG1)
T1 sequence (looked up): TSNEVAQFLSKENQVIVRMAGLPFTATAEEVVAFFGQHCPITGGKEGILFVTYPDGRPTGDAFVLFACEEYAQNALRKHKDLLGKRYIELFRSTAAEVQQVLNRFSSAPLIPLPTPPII

[2] = target: T2, ESRP1 qRRM2 E400A (human) (UniProt Q6NXG1)
T2 sequence (looked up): T1 sequence (looked up) with A20R, E89A

ESRP1 qRRM2 WT (human) = target: T3, ESRP1 qRRM2 WT (human) (UniProt Q6NXG1)
T3 sequence (looked up): T1 sequence (looked up) with A20R

Which results are given for UGGUGG [6-mer RNA]?
binding result [1]: binds more weakly; binding result [2]: binds more weakly; binding result (ESRP1 qRRM2 WT (human)): binds
